Assay results published in patent publication US20250163138A1 (Alexion, published 2025).
These are yes or no findings as the source states them, for the method shown. Some entries that bind do so weakly or less than the wild type.

Amino acid sequences for entries named in this document (tags omitted). Residues count along the entry.
UniProt P01031, residues 19-1676: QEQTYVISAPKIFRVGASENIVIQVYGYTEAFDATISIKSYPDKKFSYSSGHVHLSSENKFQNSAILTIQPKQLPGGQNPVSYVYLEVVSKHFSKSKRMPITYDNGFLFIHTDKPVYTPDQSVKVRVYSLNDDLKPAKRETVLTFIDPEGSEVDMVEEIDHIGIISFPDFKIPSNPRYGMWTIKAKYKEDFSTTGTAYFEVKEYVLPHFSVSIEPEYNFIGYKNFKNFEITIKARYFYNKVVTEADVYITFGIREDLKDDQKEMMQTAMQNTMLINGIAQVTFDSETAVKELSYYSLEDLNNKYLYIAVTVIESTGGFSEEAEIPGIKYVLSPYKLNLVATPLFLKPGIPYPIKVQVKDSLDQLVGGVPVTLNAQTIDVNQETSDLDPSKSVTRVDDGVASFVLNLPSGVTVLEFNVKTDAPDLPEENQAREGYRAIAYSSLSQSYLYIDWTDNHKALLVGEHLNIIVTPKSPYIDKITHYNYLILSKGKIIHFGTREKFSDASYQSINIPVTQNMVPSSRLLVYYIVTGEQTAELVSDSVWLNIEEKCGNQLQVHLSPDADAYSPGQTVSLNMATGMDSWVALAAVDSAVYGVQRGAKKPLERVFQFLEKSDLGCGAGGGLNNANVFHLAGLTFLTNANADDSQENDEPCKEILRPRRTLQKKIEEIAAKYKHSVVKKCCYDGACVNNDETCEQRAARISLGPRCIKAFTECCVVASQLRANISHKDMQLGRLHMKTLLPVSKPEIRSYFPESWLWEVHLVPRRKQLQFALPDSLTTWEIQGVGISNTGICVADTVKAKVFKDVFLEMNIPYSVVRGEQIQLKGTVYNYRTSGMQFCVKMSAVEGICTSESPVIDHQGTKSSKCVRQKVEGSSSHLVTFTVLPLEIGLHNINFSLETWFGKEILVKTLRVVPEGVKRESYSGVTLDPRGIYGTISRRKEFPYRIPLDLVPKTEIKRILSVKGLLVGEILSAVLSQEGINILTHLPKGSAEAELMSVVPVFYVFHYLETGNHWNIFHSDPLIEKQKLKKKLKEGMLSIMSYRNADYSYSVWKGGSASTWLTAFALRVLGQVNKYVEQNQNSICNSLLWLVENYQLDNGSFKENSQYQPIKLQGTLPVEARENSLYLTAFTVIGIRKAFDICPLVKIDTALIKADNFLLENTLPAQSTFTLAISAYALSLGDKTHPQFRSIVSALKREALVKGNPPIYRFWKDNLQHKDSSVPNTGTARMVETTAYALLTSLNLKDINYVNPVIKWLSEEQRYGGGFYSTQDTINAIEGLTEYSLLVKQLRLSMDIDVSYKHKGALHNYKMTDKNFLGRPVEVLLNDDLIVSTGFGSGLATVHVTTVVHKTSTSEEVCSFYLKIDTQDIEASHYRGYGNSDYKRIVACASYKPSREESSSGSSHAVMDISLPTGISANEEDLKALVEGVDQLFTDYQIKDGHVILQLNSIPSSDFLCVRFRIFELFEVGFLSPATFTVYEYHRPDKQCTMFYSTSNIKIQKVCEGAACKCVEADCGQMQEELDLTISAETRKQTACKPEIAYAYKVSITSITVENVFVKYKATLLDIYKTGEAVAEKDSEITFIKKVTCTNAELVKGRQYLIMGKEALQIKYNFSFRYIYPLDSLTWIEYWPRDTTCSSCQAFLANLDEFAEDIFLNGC

Experiments:
[1] = target: T1, human complement protein C5 (human, UniProt P01031 19-1676); experiment: BLI, VHH-His on anti-penta-His tips, 50 nM C5
T1 construct: Native C5 is a two-chain protein made from one precursor; also called hC5; human C5

[2] = target: cynomolgus monkey (cyno) complement protein C5 (cynomolgus monkey); experiment: BLI, VHH-His on anti-penta-His tips, 50 nM C5

Binder | binding [1] | binding [2]
LCP0081 (VHH, not shown: small tags and cut ends) VHH: EVQLVESGGGLVQTGGSLRLSCAASTSGSDFSGKKMAWYRQAPGNGREFVAIIFSNKVTDYADSVKGRFTISRDNAKKTVYLQMSSLTPTDTAVYYCHDQEISWGQGTQVTVSS | binds | –
LCP0088 (VHH, not shown: small tags and cut ends) VHH: EVQLVESGGGLVQAGGSLRLSCTASGRTISTTVMGWFRQAPGKEREFVAAVHWGDGNTVYADSVKGRFTISRDDAKNTVYLQLNYLKPEDTSVYYCAARPPTYVGTSRNSRSYDYWGQGTQVTVSS | binds | binds
LCP0298 (VHH, not shown: small tags and cut ends) VHH: EVQLVESGGGVVQPGGSLRLSCVVSGSRFSLDTVGWHHQAPGKLRELVARIRDDGDTMYVASVKGRFIISRDDAKNTVYLQMNSLKPEDTGVYYCYFSRNGAWGQGTQVTVSS | binds | binds
LCP0299 (VHH, not shown: small tags and cut ends) VHH: EVQLVESGGGLVQAGGSLRLSCGASGRISDINVMGWYRQAPGKQREMVADIDIRGYTNYADSVKGRFTVSRDNAETMYLEMNSLKPEDTAVYRCNALTSRDWGTGKYVYWGQGTQVTVSS | binds | binds
LCP0300 (VHH, not shown: small tags and cut ends) VHH: EVQLVESGGDLVQVGGSLRLSCAFPGSMSSRNSVNWYRQPPGKQREWVATISVSGFTQYADSAKGRFTISRDSAKNTVHLQMNSLKPEDTGVYYCNYMDYWGQGTQVTVSS | binds | binds
LCP0301 (VHH, not shown: small tags and cut ends) VHH: EVQLVESGGGVVRAGGSLKLSCTAAGTDINIVTVGWHRQAPGKHRELVATIVGSGSRTNYADSVKGRFTISRDNPKNTVYLQMNSLKPEDTAVYYCYATSIGWGQGTQVTVSS | binds | binds
LCP0303 (VHH, not shown: small tags and cut ends) VHH: EVQLVESGGGSVQAGGSLRLTCTASGNVRSIFTMAWYRQAPGKQRELVASAAKGGDTYYADSAKGRFTISRDDAKAIVSLQMNSLKPEDTAVYYCKTDGRPWFSEDYWGQGTQVTVSS | binds | binds
LCP0089 (VHH, not shown: small tags and cut ends) VHH: EVQLVESGGGLVQAGGSLRLSCVVSGRAIDRNAMGWFRQAPGKERESVAAISASSGNTYYSDSVTGRFTISRDNTKNTVYLQMNSLKPEDTAVYYCAAGSRGSWYLFDRREYDYWGQGTQVTVSS | binds | –
LCP0304 (VHH, not shown: small tags and cut ends) VHH: EVQLVESGGGLVQVGDSMRLSCAVFGNIFTRDPVMWFRQPPGKQREWVATITPSGFANYADSVKGRFTISRYAANNTVHLQMNSLKPEDTGVYFCNFGTYWGQGTQVTVSS | binds | binds
LCP0306 (VHH, not shown: small tags and cut ends) VHH: EVQLVESGGGLVQAGGSLRLSCAASKGAFNINVMAWYRQAPGKQRELVARVALGGTTDYADSVKGRFTISRNNAQDTVYLQMNSLKPEDTAVYYCNVLLDRGVRGSYAYWGQGTQVTVSS | binds | binds
LCP0309 (VHH, not shown: small tags and cut ends) VHH: EVQLVESGGGLVQAGGSLRLSCAASGRTYSSYVIGWFRQAPGKEREFVASIRWAGGDSHYQESVKGRSTISKDNARNTVYLQMNSLKPEDTAVYYCAGAAPVPGQSYEWSSWGQGTQVTVSS | binds | binds
LCP0310 (VHH, not shown: small tags and cut ends) VHH: EVQLVESGGGLVQAGGSLRLSCVASGSAFYVGPMAWYRQAPGKERESVASITKGGITNYADSVKGRFTISRDNAKNTVYLQMNSLKPEDTDVYVCNARVKLQEDRLFRDYWGQGTQVTVSS | binds | binds
LCP0311 (VHH, not shown: small tags and cut ends) VHH: EVQLVESGGGMVQPGGSLRLSCVVSGASGNIDFVTVGWHRQAPGKHREMVAVITGDGTRNYRDSVKGRFSISRDNAKNTIYLQMNSLKPEDTAVYYCYMSNPISSWGQGTQVTVSS | binds | binds
LCP0090 (VHH, not shown: small tags and cut ends) VHH: EVQLVESGGGLVQAGGSLRLTCTASETSFDINVMGWYRQAPGKQRELVAIITASGNTEYADSAKGRFTISRDNTKNTVAMQMNNLKPDDTAVYYCYVLLSGAVSGVYAHWGQGTQVTVSS | binds | binds
LCP0312 (VHH, not shown: small tags and cut ends) VHH: EVQLVESGGGLVQAGGSRRLSCAVSGRTLSSFGMGWFRQAPEKPREFVAAITWGQGGTFYADSVKGRFTISRDIVKNTVYLQMNDLKPDDTGLYFCVSAPHFHEAFPSRPPAYAYWGQGTQVTVSS | binds | binds
LCP0313 (VHH, not shown: small tags and cut ends) VHH: EVQLVESGGGLVQAGGSLRLSCAASGRTYGSYVIGWFRQAPGKEREFVASIRWAGGDSHYGDPLKGRSTISKDNAKNTVYLQMNSLKPEDAAVYYCAGAAPVPGSSYEWTNWGQGTQVTVSS | binds | binds

Binder | binding [1] | binding [2]
LCP0314 (VHH, not shown: small tags and cut ends) VHH: EVQLVESGGGLVQAGGSLRLSCAASGSISSVNTMGWYRQAPGKQRELVAFITSGDDTNYADSMKGRFTISRDNAKNTLYLQMNSLKPEDTAVYYCVATLGRSSSGTYTYWGQGTQVTVSS | binds | binds
LCP0316 (VHH, not shown: small tags and cut ends) VHH: EVQLVESGGGLVQAGGSLRLSCAASLRTLDNYGVGWFRQTPGREREFVSAVSWNGDRTYYQDSVKGRFTISREYAKNTVYLQMDSLKPEDTAVYYCAVNMYGSTFPGLSVESHYDYWGQGTQVTVSS | binds | binds
LCP0317 (VHH, not shown: small tags and cut ends) VHH: EVQLVESGGGLVQAGGSLRLSCAASGSIFSINAMAWYRQAQGKQRELVADITKNDITDYADSVKGRFTIARDNAKNTVDLQMNSLKPEDTAVYYCTAALSRHPYRSWGQGTQVTVSS | binds | binds
LCP0098 (VHH, not shown: small tags and cut ends) VHH: EVQLVESGGDLVQAGGSLRLSCVASRSISSAMNWYRQPPGKQRELVALITRGFNTNYADSVKGRFTISRDNAKNTVYLQMNSLKPEDTGVYYCNSLNYWGQGTQVTVSS | binds | –
LCP0100 (VHH, not shown: small tags and cut ends) VHH: EVQLVESGGGLVQAGGSLRLSCAASGRTDSMWSMGWFRQAPGQEREFVAAISWSVGTYYEDSVKGRFTLSRDDDKDTAYLEMSDLKLEDTADYYCAASTRHGTNLVLPRDYDYWGQGTQVTVSS | binds | –
LCP0104 (VHH, not shown: small tags and cut ends) VHH: EVQLVESGGGLVQAGDSLRLSCAASGRPFSSYTMGWFRQAPGKERDFVATISWSGGIKYYADSVEGRFSISRDNAKNMVYLQMNSLKPEDTAVYYCAATELRTWSRQTFEYDYWGQGTQVTVSS | binds | –
LCP0111 (VHH, not shown: small tags and cut ends) VHH: EVQLVESGGGLVQPGGSLRLSCAASGFPFSLYDMGWYRQAPEKQRESVAIITQSGSTDYADSVKGRFTISRDNAKNTLYLQMNSLKPEDTAVYYCRLVGVTWGQGTQVTVSS | binds | –
LCP0112 (VHH, not shown: small tags and cut ends) VHH: EVQLVESGGGLVQAGGSLTLSCAASGRTFSSYGIGWFRQAPGKEREFVAAISRTGQTTHYADSIRFTISRDNAKNTVYLQMNSLKPEDTAVYYCAARTGGPIYGSEYHYWGQGTQVTVSS | binds | –
LCP0113 (VHH, not shown: small tags and cut ends) VHH: EVQLVESGGGLVQAGDSLTLSCAASGRPFSSLTMGWFRQAPGKGREFVATTSWSGDIKYYADFVKGRFTISRDNAKNMVYLQMNSLKPEDTAVYYCAATLLRTWSRQTNEYEYWGQGTQVTVSS | binds | –
LCP0128 (VHH, not shown: small tags and cut ends) VHH: EVQLVESGGGLVQAGGSLRLSCTASGRTISTTVMGWFRQAPGKEREFVAAVHWGDESTVYADSVKGRFTISRDNAKNTVYLQMNYLKPEDTAVYYCAARPPTYVGTSRSSRAYDYWGQGTQVTVSS | binds | –
LCP0132 (VHH, not shown: small tags and cut ends) VHH: EVQLVESGGGLVQPGGSLRLSCEASGISLNDYNMGWFRQAPGKDREIVAALSRRSHGIYQSDSVKYRFSISRDNTKNMVSLQMDSLRPEDTAVYYCAADGDPYFTGRDMNPEYWGQGTQVTVSS | binds | –
LCP0138 (VHH, not shown: small tags and cut ends) VHH: EVQLVESGGGSVPAGGSLRLSCAAFGFTFDNYAIAWFRQAPGKEREGVSCLSTNDGETYYADSVKGRFTISSDHAKNTVYLQMDSLRPEDTAVYYCAAAEGSWCHKYEYDYWGQGTQVTVSS | binds | –
LCP0139 (VHH, not shown: small tags and cut ends) VHH: EVQLVESGGGLVQAGESLRLSCAASGRTSDLYVVGWFRQTPGKEREFVAGIAWTGDASYYADSVEGRFTIARDNAENRIDLQMTSLKPEDTAVYYCAADSRARFERQRYNDMNYWGQGTQVTVSS | binds | –
LCP0145 (VHH, not shown: small tags and cut ends) VHH: EVQLVESGGGLVQAGGSLRLSCVASEDAFKTDTLGWFRQAPGEEREFVAAFVWAGGPFYADSVKGRFTISMDEDRNTVYLQMNSLKPEDTGVYYCAASLSRLRVGEITPRHMNYWGQGTQVTVSS | binds | –
LCP0086 (VHH, not shown: small tags and cut ends) VHH: EVQLVESGGGLVQAGESLRLSCAASGSISAINAMGWYRQAPGKQREFVADITRAGVSDYADAVKGRFTISRDNAKNTFYLQMNDLKPEDTAVYYCDALLIAGGVYWGQGTQVTVSS | binds | –
LCP0152 (VHH, not shown: small tags and cut ends) VHH: EVQLVESGGGLEQAGGSLRLSCTASGGTDSIYQMGWFRQTPGKEREFVAAINWNYGGAYYPDSVKGRFTISRDKAKNIGFLQMNSLKPEDTAVYYCATSQTSVDAFSVPITTARRYQYWGQGTQVTVSS | binds | –
